The values that follow come from patent US6762294B2, “Polynucleotides encoding polymorphic human GABAA receptor α-6 subunit” (The United States of America as represented by the …, priority 1999, dated 2004).

For the data set the following is noted: after iv diazepam, cumulative 200 μg/kg, all time points.

For the compound `O=C1CN=C(c2ccccc2)c2cc(Cl)ccc2N1` [desmethyldiazepam], the “Plasma level of the metabolite relative to parent drug” value is on record as “much lower than levels of the parent drug”.
